The values are deposited in ChEMBL (CHEMBL3988442, “University of Dundee, Small-Polar-MMV Screening Library” (2021)).

The chains behind the UniProt entries cited, without tags or fusion partners.
UniProt I6X8D2, whole entry: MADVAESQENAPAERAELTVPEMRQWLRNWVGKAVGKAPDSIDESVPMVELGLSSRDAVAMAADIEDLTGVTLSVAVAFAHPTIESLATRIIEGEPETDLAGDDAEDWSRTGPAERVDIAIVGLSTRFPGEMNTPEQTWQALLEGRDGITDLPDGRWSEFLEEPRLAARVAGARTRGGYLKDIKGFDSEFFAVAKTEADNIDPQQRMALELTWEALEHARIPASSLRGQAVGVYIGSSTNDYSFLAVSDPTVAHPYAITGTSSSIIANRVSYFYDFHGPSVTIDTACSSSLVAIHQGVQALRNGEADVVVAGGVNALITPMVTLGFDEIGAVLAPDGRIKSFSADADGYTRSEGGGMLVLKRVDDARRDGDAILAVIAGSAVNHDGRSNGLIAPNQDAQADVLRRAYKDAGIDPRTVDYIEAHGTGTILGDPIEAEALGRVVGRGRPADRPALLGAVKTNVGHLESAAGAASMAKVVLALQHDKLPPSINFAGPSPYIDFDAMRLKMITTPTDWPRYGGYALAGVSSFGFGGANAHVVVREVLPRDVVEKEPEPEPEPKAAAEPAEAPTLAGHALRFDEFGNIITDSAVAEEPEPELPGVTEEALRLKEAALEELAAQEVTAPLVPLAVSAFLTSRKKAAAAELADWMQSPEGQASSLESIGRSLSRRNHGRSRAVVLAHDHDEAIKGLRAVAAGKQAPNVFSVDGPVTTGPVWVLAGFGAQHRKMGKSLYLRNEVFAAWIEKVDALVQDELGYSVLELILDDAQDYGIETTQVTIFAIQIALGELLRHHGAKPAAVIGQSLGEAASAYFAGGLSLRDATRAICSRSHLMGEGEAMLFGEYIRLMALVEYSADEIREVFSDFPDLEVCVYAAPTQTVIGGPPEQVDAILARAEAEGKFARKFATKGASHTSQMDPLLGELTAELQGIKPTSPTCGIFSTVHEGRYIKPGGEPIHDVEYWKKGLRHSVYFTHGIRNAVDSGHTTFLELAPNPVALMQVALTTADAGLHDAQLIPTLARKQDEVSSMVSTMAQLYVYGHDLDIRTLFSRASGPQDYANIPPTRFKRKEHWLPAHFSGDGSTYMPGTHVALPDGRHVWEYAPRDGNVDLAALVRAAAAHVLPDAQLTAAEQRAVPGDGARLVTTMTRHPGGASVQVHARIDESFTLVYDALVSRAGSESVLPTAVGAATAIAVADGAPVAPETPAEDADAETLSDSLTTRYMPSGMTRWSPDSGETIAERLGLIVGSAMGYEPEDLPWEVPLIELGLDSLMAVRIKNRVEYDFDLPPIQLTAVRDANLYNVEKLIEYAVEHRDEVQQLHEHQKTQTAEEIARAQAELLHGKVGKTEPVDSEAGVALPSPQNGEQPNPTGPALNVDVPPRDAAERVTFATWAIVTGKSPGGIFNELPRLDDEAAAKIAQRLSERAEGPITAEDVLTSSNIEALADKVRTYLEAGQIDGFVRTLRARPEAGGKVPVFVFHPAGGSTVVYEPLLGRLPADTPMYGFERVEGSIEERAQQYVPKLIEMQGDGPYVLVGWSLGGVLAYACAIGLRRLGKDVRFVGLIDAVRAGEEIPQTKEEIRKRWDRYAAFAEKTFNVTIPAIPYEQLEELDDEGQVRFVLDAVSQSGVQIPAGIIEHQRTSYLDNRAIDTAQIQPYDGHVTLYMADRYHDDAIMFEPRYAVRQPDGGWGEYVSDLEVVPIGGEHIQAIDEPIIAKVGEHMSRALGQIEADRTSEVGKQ
UniProt P9WNZ1, whole entry: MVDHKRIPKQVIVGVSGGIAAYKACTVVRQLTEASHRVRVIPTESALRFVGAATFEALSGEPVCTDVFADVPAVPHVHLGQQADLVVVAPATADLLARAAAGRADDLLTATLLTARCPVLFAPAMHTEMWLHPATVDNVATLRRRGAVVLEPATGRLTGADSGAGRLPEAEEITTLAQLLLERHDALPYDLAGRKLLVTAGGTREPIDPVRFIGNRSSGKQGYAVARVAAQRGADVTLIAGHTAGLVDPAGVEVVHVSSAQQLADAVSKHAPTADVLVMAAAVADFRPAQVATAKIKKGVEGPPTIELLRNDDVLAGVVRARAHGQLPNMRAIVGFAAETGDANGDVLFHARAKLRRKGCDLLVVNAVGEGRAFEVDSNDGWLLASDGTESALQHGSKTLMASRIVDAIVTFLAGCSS
UniProt P9WPC5, whole entry: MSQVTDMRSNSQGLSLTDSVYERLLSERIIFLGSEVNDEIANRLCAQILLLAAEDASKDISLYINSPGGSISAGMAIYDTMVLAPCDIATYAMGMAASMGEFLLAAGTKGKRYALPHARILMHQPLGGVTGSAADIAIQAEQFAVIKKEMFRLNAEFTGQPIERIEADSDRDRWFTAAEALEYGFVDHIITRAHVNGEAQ
UniProt P9WPC3, whole entry partner: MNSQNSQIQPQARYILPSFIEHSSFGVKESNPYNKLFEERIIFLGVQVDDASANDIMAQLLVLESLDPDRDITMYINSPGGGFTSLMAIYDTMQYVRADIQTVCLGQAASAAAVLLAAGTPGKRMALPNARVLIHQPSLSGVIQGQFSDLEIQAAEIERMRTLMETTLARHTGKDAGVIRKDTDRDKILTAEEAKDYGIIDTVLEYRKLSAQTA
UniProt P9WFT3, whole entry: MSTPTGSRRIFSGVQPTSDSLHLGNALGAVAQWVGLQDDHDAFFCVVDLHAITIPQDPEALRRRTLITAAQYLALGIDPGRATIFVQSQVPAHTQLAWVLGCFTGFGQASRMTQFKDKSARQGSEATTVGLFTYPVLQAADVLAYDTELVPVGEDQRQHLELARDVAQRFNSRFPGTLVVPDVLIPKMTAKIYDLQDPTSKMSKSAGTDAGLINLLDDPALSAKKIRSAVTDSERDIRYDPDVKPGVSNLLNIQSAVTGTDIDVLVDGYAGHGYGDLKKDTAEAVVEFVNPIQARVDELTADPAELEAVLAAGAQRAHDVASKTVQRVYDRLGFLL

A: 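Polyketide synthase Pks13, Mycobacterium tuberculosis (UniProt I6X8D2). Enzyme assay of the thioesterase domain of polyketide synthase 13; the read-out is not stated. Compounds at 30 µM. The record gives no direction; the compounds picked for IC50 retests had high values, so higher reads as stronger inhibition. Of about 67,000 compounds tested this way, about 300 (0.46%) reached 50% or more in at least one test.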
B: 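Assay of Toxoplasma gondii numbers, read through their beta-galactosidase reporter with a colour substrate. Compounds at 10 µM. The record gives no direction; the compounds picked for IC50 retests had high values, so higher reads as fewer parasites. Of about 67,000 compounds tested this way, about 260 (0.38%) reached 50% or more in at least one test.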
C: 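Enzyme assay of CoaBC with a phosphate dye (Biomol Green) read at 650 nm. Target: Coenzyme A biosynthesis protein CoaBC, Mycobacterium tuberculosis (UniProt P9WNZ1). Concentration: 30 µM. Higher reads as stronger inhibition, judged from the few compounds that gave an IC50. Most strong results did not repeat in a second test. Of about 67,000 compounds tested this way, about 40 (0.06%) reached 50% or more in at least one test.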
D: 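Protease assay of ClpP1P2, read by the AMC dye that it sets free. Target: ClpP1P2, Mycobacterium tuberculosis (UniProt P9WPC5 and UniProt P9WPC3). Concentration: 50 µM. Higher reads as stronger inhibition, judged from the few compounds that gave an IC50. Most other retested compounds had strongly negative values. About 69,000 compounds were tested under these conditions; 0.015% (about 10) showed 50% or more at least once.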
E: 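Cell assay of Leishmania donovani living inside macrophages; the read-out is not stated. Compounds at 30 µM. Direction is inferred from retests: higher values go with stronger inhibition. About 69,000 compounds were tested under these conditions; 1.5% (about 1,000) showed 50% or more at least once.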
F: 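Tryptophan-tRNA ligase, Mycobacterium tuberculosis (UniProt P9WFT3). Enzyme assay of tryptophanyl-tRNA synthetase; the read-out is not stated. Compounds at 10 µM. Direction is not recorded; retested compounds ran higher, which suggests that high means inhibition. Size under these conditions: about 65,000 compounds, about 64 of them at 50% or above in at least one test.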

Results are given as percent effect. The record does not define 0% and 100%; most values in the screen are far below 50% and negative numbers occur (in some assays of this library far below -100). Compounds were drawn at random from those tested, without regard to their results. Two or more numbers in one place are separate tests of the same structure; such repeats can differ widely. A dash means the value is not listed here; it may have been measured.

structure | A | B | C | D | E | F
Cc1cc(C[S+]([O-])CC(=O)NCc2ccccc2)no1 (centres unmarked) | -5.585% | 2.119% | -1.677% | -17.15% | 1.729% | -0.4869%
CCn1c(N)nc2cc(C(=O)NCCc3ccncc3)cnc21 | -12.14% | -34.06% | 4.937% | 0.354% | 62.87% | 6.526%
CCC(=O)N1CCC(Oc2ccc(C(=O)NCCN(C)C)cc2Cl)CC1 | 11.97% | 4.928% | -37.34% | -4.409% | -6.182% | 14.86%
CC(C)n1nc2c(cc1=O)CN(CCOc1cccc(C#N)c1)CC2 | 10.11% | 0.4369% | 4.177% | -22.65% | 20.76% | -1.356%
CCc1nn(-c2cc(Oc3cc(C)ccc3C)ncn2)c(N)c1C#N | -6.186% | 15.45% | 5.145% | 11.62% | 55.59% | 3.344%
CNC(=O)[C@@H]1C[C@@H](N)CN1Cc1cc2cc(C)cc(C)c2[nH]c1=O | -21.16% | -11.61% | 12.8% | 7.353% | 35.06% | -2.812%
Cc1ncc(-c2ccnc(N3CCCCCC3)n2)c(-c2cccnc2)n1 | 4.15% | 1.471% | 8.735% | -2.043% | 5.535% | 0.9291%
CCN1C(=O)CCCC12CCCN(C(=O)c1ccoc1C)C2 (centres unmarked) | -19.21% | -25.7% | 5.534% | -5.122% | -7.282% | -3.343%
O=C(Nc1ccc(F)cc1)N1CCN(Cc2noc(C3CC3)n2)CC1 | -20.4% | 12.12% | -0.6361% | -7.306% | 15% | 2.812%
COCCN(C(=O)c1cnccn1)c1nc2c(s1)CCc1c-2cnn1C | 8.673% | -0.8756% | 2.451% | -1.532% | 0.2188% | -
c1cncc(-c2nnc([C@H]3CCN(CC4CCCCC4)C3)o2)c1 | -18.72% | 9.653% | 13.77% | 7.222% | 9.939% | -2.786%
COc1cccc2c1ccn2CCC(=O)N1CCC(C(=O)O)CC1 | 0.6185% | -7.931% | 5.063% | -6.283% | -4.446% and 13.82% | 3.476%
O=C(NCC(O)c1ccc(F)c(F)c1)c1cccnc1OCC(F)(F)F (centres unmarked) | - | 2.886% | 6.667% | -4.904% | 20.56% | -2.385%
CCOc1cc(/C=C/c2ncc(C(=O)NC)s2)ccc1OC | 20.81% | 5.413% | 9.524% | 10.01% | 20.1% | -3.685%
O=C(C1CCC1)N1CCO[C@H]2[C@H](OCCCn3cccn3)CC[C@@H]21 | -40.36% | - | -1.603% | -7.766% | - | 11.44%
[H][C@]12CCN(C(=O)N3CCCC3)C[C@@]1([H])OCCN(S(C)(=O)=O)C2 | - | -7.711% | - | - | 57.39% | -
CC(=O)N1CCN(c2nc3c(cnn3C(C)(C)C)c(=O)[nH]2)CC1 | -24.94% | 4.157% | -94.09% | -7.447% | 15.38% | -2.677%
CCCC(=O)NCC(=O)Nc1cc(F)ccc1SCC(F)F | - | 7.036% | 3.926% | -6.631% | -46.76% | -1.821%
O=C(c1scc2c1OCCO2)N1CCOC(Cc2ccc(F)cc2)C1 (centres unmarked) | 12.29% | -6.877% | -0.5115% | -17.27% | 31.61% | 0%
Cc1cc(CCC(N)=O)cc(C2CCCN2Cc2ccccn2)n1 (centres unmarked) | 3.528% | 11.25% | 6.568% | -12.03% | 12.25% | -
O=C(NS(=O)(=O)c1ccc(F)cc1)C1CCOc2ccccc21 (centres unmarked) | -8.808% | -3.486% | -0.9662% | -2.266% | 12.7% | 0.5455%
NC(=O)CSc1nnc2[nH]c(=O)c3c(n12)CCCC3 | -15.79% | -1.03% | 9.937% | 8.489% | 5.557% and 12.46% | -10.41%
COc1cc(C(C)=O)ccc1OCC(=O)N(C)Cc1cnn(C)c1 | -0.6409% | -12.99% | 10.85% | 9.468% | 9.744% | 0.8772%
Cc1sc2ncc(-c3ccnc(NC4CCN(C)CC4)n3)c(=O)n2c1C | 15.03% | 7.923% | -1.566% | -151.6% | 8.145% and 23.1% | -
CC(C)(C)c1ncc2c(n1)CN(C(=O)c1ccc3[nH]cnc3c1)C2 | -31.14% | 1.572% | 2.545% | -12.36% | -82.64% | 3.232%
c1ccc(N2CCCC2)c(NCc2ccncc2)c1 | 17.7% | 20.49% | 0.3841% | 0.7629% | -24.97% | -2.314%
CCOCCNC(=O)Nc1ccc(OCc2noc(C3CC3)n2)cc1 | -13.01% | -1.125% | 5.952% | 0.4765% | 16.47% | 0.3812%
O=C(O)C(F)(F)F.[H][C@]12CCN(C(=O)Cc3cccs3)C[C@@]1([H])OCCN(C(C)C)C2 | - | -37.7% | - | - | 50.53% | -

Once more, the final 3:

| structure | A | B | C | D | E | F |
|---|---|---|---|---|---|---|
| `c1ccc(N2CCCC2)c(NCc2ccncc2)c1` | 17.7% | 20.49% | 0.3841% | 0.7629% | -24.97% | -2.314% |
| `CCOCCNC(=O)Nc1ccc(OCc2noc(C3CC3)n2)cc1` | -13.01% | -1.125% | 5.952% | 0.4765% | 16.47% | 0.3812% |
| `O=C(O)C(F)(F)F.[H][C@]12CCN(C(=O)Cc3cccs3)C[C@@]1([H])OCCN(C(C)C)C2` | - | -37.7% | - | - | 50.53% | - |